The list shows a part of the results. These are raw signals, not scaled to a control.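 Primary screen: polymyxin B was added at a level permeabilizing Salmonella outer membranes while sparing inner membranes. DMSO wells, both with and without polymyxin B, established maximum growth. Plate-to-plate variation meant each plate was ranked on its own, and the lowest-OD600 compounds were selected as hits.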
Test system: Salmonella enterica serovar Typhimurium SL1344
Test: bacterial growth OD600 after 18 h with compound and polymyxin B; higher = more bacterial growth (less inhibition)
Details: 50 µM, Mueller-Hinton broth

COC(=O)[C@]1(C)C[C@H](C(=O)NCC(F)(F)F)[C@H](c2ccccc2Cl)N1C
bacterial growth OD600 (polymyxin B 0.75 µg/mL): 0.954

COc1ccc(CN(Cc2cc3c(OC)ccc(OC)c3nc2N(C)C)C(=O)c2ccc(F)cc2)cc1
bacterial growth OD600 (polymyxin B 0.75 µg/mL): 0.036

Cc1ccc2c(c1)CN(CCC(=O)NC1CCc3ccccc31)CC(C)O2 (stereo not drawn)
bacterial growth OD600 (polymyxin B 0.75 µg/mL): 0.756

COCC(=O)NCc1cccnc1N1CCN(c2ccccc2C)CC1
bacterial growth OD600 (polymyxin B 1 µg/mL): 0.8

COc1ccc(NC2CCCN(C(=O)c3ccc4ncccc4c3)C2)cc1OC (stereo not drawn)
bacterial growth OD600 (polymyxin B 1 µg/mL): 1.17

CC(Cc1ccsc1)NC(=O)c1coc(COc2ccc3c(c2)OCO3)n1 (stereo not drawn)
bacterial growth OD600 (polymyxin B 1 µg/mL): 0.872

Cc1c(CC(=O)NCc2ccon2)c2c(n1Cc1ccccc1F)CCCC2=O
bacterial growth OD600 (polymyxin B 1 µg/mL): 1.18

Fc1ccc(CNCc2cccnc2N2CCOCC2)cc1F
bacterial growth OD600 (polymyxin B 1 µg/mL): 0.878

COc1ccc(CN2CC[C@@H](N3CCC(O)CC3)[C@H](O)C2)c(F)c1
bacterial growth OD600 (polymyxin B 0.75 µg/mL): 0.75

CCOC(=O)C1CCCN(Cc2cn(C)nc2-c2cccc(Cl)c2)C1 (stereo not drawn)
bacterial growth OD600 (polymyxin B 1 µg/mL): 0.843

COc1cccc(CN2CCN(Cc3c(C)cc(C)cc3-n3cccn3)CC2CCO)c1 (stereo not drawn)
bacterial growth OD600 (polymyxin B 1 µg/mL): 0.555

CCC1CN(C(=O)c2ccc(NCc3cnn(C)c3)nc2)CCN1C(C)C (stereo not drawn)
bacterial growth OD600 (polymyxin B 1 µg/mL): 0.821

c1cnc(N2CCC(C3CCN(C4CCSCC4)C3)CC2)nc1 (stereo not drawn)
bacterial growth OD600 (polymyxin B 0.75 µg/mL): 0.781

Cc1ccc(C(=O)N2CCC(CCC(=O)NCc3cccnc3)CC2)s1
bacterial growth OD600 (polymyxin B 0.75 µg/mL): 0.833

C=CCn1cc(CNC2CC(C)(C)Cc3nc(N4CCOCC4)ncc32)c(C)n1 (stereo not drawn)
bacterial growth OD600 (polymyxin B 0.75 µg/mL): 0.804

CCOC(=O)c1c(C)[nH]c(C(=O)N2CCC3(CCCN(CC4CC4)C3)C2)c1C (stereo not drawn)
bacterial growth OD600 (polymyxin B 1 µg/mL): 1.23

CC(=O)N1CCC(C(=O)N2CCCC(Nc3ccc(C)c(C)c3)C2)CC1 (stereo not drawn)
bacterial growth OD600 (polymyxin B 1 µg/mL): 0.902

COCc1noc(-c2ccc(N3CCC4(CC3)OCCO4)nc2)n1
bacterial growth OD600 (polymyxin B 1 µg/mL): 0.976

Cc1ccc(CN2CC[C@@H](N3CCN(c4ccccn4)CC3)[C@H](O)C2)s1
bacterial growth OD600 (polymyxin B 1 µg/mL): 0.879

O=C1OCCN1CCNC(=O)C1(N2CCCCC2)Cc2ccccc2C1
bacterial growth OD600 (polymyxin B 0.75 µg/mL): 0.688

CCOc1ccccc1CN1CCC(Oc2cc(OC)ccc2C(=O)NCCOC)CC1
bacterial growth OD600 (polymyxin B 1 µg/mL): 1.22

COC(=O)CCCC(=O)N1CCc2[nH]nc(-c3ccc4c(c3)OCO4)c2C1
bacterial growth OD600 (polymyxin B 0.75 µg/mL): 0.901

Cn1nccc1C(=O)N1CCC(C2CCN(Cc3ccc(Cl)cc3)C2)CC1 (stereo not drawn)
bacterial growth OD600 (polymyxin B 1 µg/mL): 1.01

Cc1nc(C)c(C(=O)NCc2cccnc2N(C)Cc2ccccc2)s1
bacterial growth OD600 (polymyxin B 1 µg/mL): 0.772

OCC1CCCCN1Cc1ccc2c(c1)CN(Cc1cccc3cccnc13)CCO2 (stereo not drawn)
bacterial growth OD600 (polymyxin B 0.75 µg/mL): 0.91

C=CCS(=O)(=O)N1CCCC(CCc2ccccc2F)C1 (stereo not drawn)
bacterial growth OD600 (polymyxin B 0.75 µg/mL): 0.002

COC(=O)c1cc(CNC(=O)c2ccccc2OC)cc(NC(=O)c2ccco2)c1
bacterial growth OD600 (polymyxin B 0.75 µg/mL): 0.871

Cc1n[nH]c(SCCNC(=O)c2csc3nc(-c4ccccc4)cn23)n1
bacterial growth OD600 (polymyxin B 0.75 µg/mL): 0.767

COC(=O)CCC(=O)N1CCCC(N2CCN(Cc3ccc4c(c3)OCO4)CC2)C1 (stereo not drawn)
bacterial growth OD600 (polymyxin B 1 µg/mL): 1

CN(Cc1ccc(F)cc1)c1ccc(OCC(=O)N2CCc3nc[nH]c3C2c2ccccn2)nn1 (stereo not drawn)
bacterial growth OD600 (polymyxin B 0.75 µg/mL): 0.887

COc1ccc(C(CC(=O)NCc2cccnc2)c2ccccc2)cc1 (stereo not drawn)
bacterial growth OD600 (polymyxin B 1 µg/mL): 0.813

COc1cccc(-c2cn3c(C(=O)N4CCC[C@H]4C(N)=O)csc3n2)c1
bacterial growth OD600 (polymyxin B 1 µg/mL): 0.915

Cc1cccc(NC(=O)CCC2CCN(C(=O)CCOc3ccccc3)CC2)c1
bacterial growth OD600 (polymyxin B 1 µg/mL): 0.638
